At least one compound was matched to its structure with a doubt left.
Experiments:
Format in all cases: cell-based
[1] = system: biopsy induced tumoroids (BITs); assay: Chemosensitivity of biopsy induced tumoroids (BITs) from FNAs of implanted LLC1 mouse tumors on 3P scaffolds; conditions: FNA tumoroids on 3P scaffold cultured with inhibitor
Experimental: FIG. 17 illustrates biopsy tumoroids (day 2) treated with 1 μM each of LY294002 or U0126 for 3 days. The average size of biopsy tumoroids on 3P scaffolds (n=10 controls, 55 LY294002 and 50 U0126) is shown.
Culturing fine needle aspirates (FNAs) of implanted mouse tumors: LLC1 cells (5×10^5) were subcutaneously injected into the flanks of wild type C57BL/6 mice (National Cancer Institute). Tumor formation was monitored for 2 weeks after which tumor biopsies were collected by fine needle aspiration. Briefly, a 23-gauge needle was inserted into the tumor using a rotating motion and the tissue samples were flushed from the needle by attaching a syringe filled with tissue culture medium and expelling the contents into a sterile tube. This process was repeated twice. The three collected tumor samples were pooled and single cell suspensions were cultured on the scaffold.
Chemosensitivity of tumor biopsies grown on 3P scaffolds: To determine if the 3P scaffold can be utilized to culture tumor biopsies, single-cell suspensions of FNAs of implanted mouse tumors were cultured on 3P scaffolds. […] In addition to tumor cells, BITs were examined for the presence of stromal cells that are typical of in vivo tumor microenvironment (TME) (Mallela et al., (2013) Stem Cells 31: 1321-1329) by immunostaining with antibodies to respective cell surface markers. […]

LLC spheroids [2] = assay: Drug efficacy on LLC spheroids grown on 3P scaffold (spheroid size and number); conditions: 96 hours post treatment
Experimental: Drug efficacy analysis using 3P scaffold: To assess the ability of the 3P scaffold to monitor therapeutic efficacy to treat tumors, LLC spheroids were treated with different concentrations of the PI3K pathway inhibitor Ly294002 (1.0 μM, 0.1 μM, and 0.01 μM) and spheroid viability was assessed over a time period of 24 hours to 96 hours.

LLC spheroids [3] = assay: EMT marker expression in fully formed LLC spheroids treated at day 4
Experimental: (§1) To determine if treatment by these agents would deregulate EMT in fully formed spheroids, the same concentration of drugs were administered to LLC spheroids cultured at day 4.

MCF-7 cells = assay: Inhibition of spheroid formation and EMT markers in MCF-7 cells on 3P scaffold
Experimental: as §1

## O=c1cc(N2CCOCC2)oc2c(-c3ccccc3)cccc12 [LY294002]
[1]
  growth of BITs: decreases in tumoroid size
LLC spheroids [2]; 0.1 μM
  spheroid state (number measurement): dissipated
  spheroid state (size measurement): appeared dead
LLC spheroids [2]; 1.0 μM
  spheroid state (number measurement): dissipated
  spheroid state (size measurement): appeared dead
LLC spheroids [3]
  vimentin and E-cadherin expression (EMT inhibition): lack of vimentin expression and a concomitant expression of E-cadherin
MCF-7 cells; MCF-7 treated after 24 hours of culture, observed on day 4
  spheroid formation and proliferation on 3P scaffolds: prevented spheroid formation and proliferation
MCF-7 cells; cells on 3P scaffold treated after 24 hours of culture
  vimentin and E-cadherin expression: down regulating vimentin while maintaining E-cadherin expression

Source: patent US9618501B2, “Three-dimensional fibrous scaffolds for cell culture” (University of South Florida, priority 2012, dated 2017)
